Experimental findings from ChEMBL document CHEMBL4513141, “CO-ADD screening of NIH (USA) - Clinical Collection” (2021) are described below.

This is one part of the list. Entries with a potency or affinity are not part of this list.

The test relates to Acinetobacter baumannii. Conditions: Concentration 20 uM; ASSAY_TEST Inhibition of Bacterial Growth; detection method Absorption (OD600); MEDIA CAMHB; plate type 384well; NBS; CORNING #3640; time 18 hr.
Consider `CN1CCC[C@H]1c1cccnc1` [NICOTINE], for which the Inhibition is 11.55%.

`Br.COc1ccc2c3c1O[C@H]1C[C@@H](O)C=C[C@@]31CCN(C)C2` [GALANTAMINE HYDROBROMIDE]: the Inhibition was 25.98%. Molecule `CN1C(=O)CN=C(c2ccccc2)c2cc(Cl)ccc21` [DIAZEPAM] displayed an Inhibition of 30.31%. `CCOC(=O)C1(c2ccccc2)CCN(CCC(C#N)(c2ccccc2)c2ccccc2)CC1.Cl` [DIPHENOXYLATE HYDROCHLORIDE] registered an Inhibition of 19.63%. For `Cc1c(OCC(F)(F)F)ccnc1C[S+]([O-])c1nc2ccccc2[nH]1` (stereo unspecified) [LANSOPRAZOLE], the Inhibition is on record as 5.8%.

`Cl.O=C1c2cccc3c2[C@H](CCC3)CN1[C@@H]1CN2CCC1CC2` [PALONOSETRON HYDROCHLORIDE] showed an Inhibition of 23.39%.

On to `CC[N+](C)(C)c1cccc(O)c1.[Cl-]` [EDROPHONIUM CHLORIDE], for which the Inhibition is recorded as 20.09%.

For the molecule `O=C(O)C(Cl)Cl` [DICHLOROACETIC ACID], the Inhibition amounted to 21.11%.

In turn, `CC(C)NCC(O)c1ccc(O)c(O)c1.Cl` (stereo unspecified) [ISOPROTERENOL HYDROCHLORIDE] had an Inhibition of 25%.

`COc1ccc(C(CN(C)C)C2(O)CCCCC2)cc1.Cl` (stereo unspecified) [VENLAFAXINE HYDROCHLORIDE] came in with an Inhibition of 10.29%. `Cc1nnc2n1-c1ccc(Cl)cc1C(c1ccccc1)=NC2` [ALPRAZOLAM]: the Inhibition is given as 23.3%.

The molecule `Cl.FC(F)(F)c1cccc(N2CCNCC2)c1` [N- (3-TRIFLUOROMETHYLPHENYL)PIPERAZINE HYDROCHLORIDE (TFMPP)] returned an Inhibition of 7.81%. `CC(=O)OCC[N+](C)(C)C.[Cl-]` [ACETYLCHOLINE CHLORIDE] registered an Inhibition of 19.09%.

Molecule `COCCCOc1ccnc(C[S+]([O-])c2nc3ccccc3[nH]2)c1C` (stereo unspecified) [RABEPRAZOLE] returned an Inhibition of 18.15%. In the case of `CC(COc1ccccc1)N(CCCl)Cc1ccccc1.Cl` (stereo unspecified) [PHENOXYBENZAMINE HYDROCHLORIDE] it was 16.81%; in that of `CCOC(=O)c1cncn1[C@H](C)c1ccccc1` [ETOMIDATE], 8.53%. `CC(O)(CS(=O)(=O)c1ccc(F)cc1)C(=O)Nc1ccc(C#N)c(C(F)(F)F)c1` (stereo unspecified) [BICALUTAMIDE] returned an Inhibition of 15.75%. `Cc1ccc(-c2nc3ccc(C)cn3c2CC(=O)N(C)C)cc1.Cc1ccc(-c2nc3ccc(C)cn3c2CC(=O)N(C)C)cc1.O=C(O)C(O)C(O)C(=O)O` [ZOLPIDEM TARTRATE]: the Inhibition amounted to 22.8%. `Cl.Oc1ccc2c3c1OC1C(O)CC[C@@]4(O)[C@@H](C2)N(CC2CCC2)CC[C@]314` (stereo partly specified): the Inhibition is reported as 15.32%. The molecule `Cl.Cl.OCCN1CCN(CCCN2c3ccccc3Sc3ccc(C(F)(F)F)cc32)CC1` [FLUPHENAZINE HYDROCHLORIDE] came in with an Inhibition of 21.6%. For the molecule `Cl.O[C@@H]1CCCC[C@H]1N1CCC(c2ccccc2)CC1`, the Inhibition was found to be 20.4%. `CCOC(=O)C1=C(COCCN)NC(C)=C(C(=O)OC)C1c1ccccc1Cl` (stereo unspecified) [AMLODIPINE]: the Inhibition came to 5.93%. In turn, `Cl.O.Oc1ccc2c3c1O[C@H]1c4[nH]c5ccccc5c4C[C@@]4(O)C(C2)N(CC2CC2)CC[C@]314` returned an Inhibition of 9.13%.

As to `CC(C(=O)O)c1ccc(-c2ccccc2)c(F)c1` (stereo unspecified) [FLURBIPROFEN], the Inhibition worked out at 19.06%.

`O=C(O)CCCc1ccc(N(CCCl)CCCl)cc1` [CHLORAMBUCIL]: the Inhibition is listed as 17.67%. `CC[C@@H](C(N)=O)N1CCCC1=O` had an Inhibition of 24.79%. As to `COc1ccc(CCN)cc1OC`, the Inhibition is 24.31%.

With `Oc1ncnc2[nH]ncc12` [ALLOPURINOL], the Inhibition is on record as 22.61%. Take `COc1ccc2[nH]cc(CCN)c2c1` [5-METHOXYTRYPTAMINE]: the Inhibition was found to be 13.31%. On to `C[N+]1(CCC(C(N)=O)(c2ccccc2)c2ccccc2)CCCCC1.[Br-]` [FENPIVERINIUM BROMIDE], for which the Inhibition worked out at 18.01%. Turning to `COc1cc([C@@H]2c3cc4c(cc3[C@H](O)[C@H]3COC(=O)[C@H]23)OCO4)cc(OC)c1OC` [PODOFILOX], the Inhibition stood at 33.5%. For `CN(C)CCOc1ccc(/C(=C(/CCCl)c2ccccc2)c2ccccc2)cc1.O=C(O)CC(O)(CC(=O)O)C(=O)O` [TOREMIFENE CITRATE], the Inhibition was found to be 21.87%. Molecule `COc1cc(N)c(Cl)cc1C(=O)NC1CN2CCC1CC2.Cl.O` (stereo unspecified) [ZACOPRIDE HYDROCHLORIDE] had an Inhibition of 8.33%. In the case of `CC(=O)OC1C([N+]2(C)CCCCC2)C[C@H]2C3CC[C@H]4C[C@H](OC(C)=O)C([N+]5(C)CCCCC5)CC4(C)[C@H]3CCC12C.[Br-].[Br-]` (stereo partly specified) it was 19.67%; in that of `Cl.N=C(N)NC(=O)c1nc(Cl)c(N)nc1N.O.O` [AMILORIDE HYDROCHLORIDE], 11.89%.

For the molecule `CNC(=O)Oc1ccc2c(c1)[C@]1(C)CCN(C)C1N2C.CNC(=O)Oc1ccc2c(c1)[C@]1(C)CCN(C)C1N2C.O=S(=O)(O)O` (stereo partly specified), the Inhibition worked out at 24.77%. The same measure for `CN1[C@@H]2CC[C@H]1C[C@@H](OC(=O)c1c[nH]c3ccccc13)C2.Cl`: 23.42%.

`CC(=O)[C@H]1CC[C@H]2[C@@H]3CCC4=CC(=O)CC[C@]4(C)[C@H]3CC[C@]12C` [PROGESTERONE] gave an Inhibition of 21.89%.

For the molecule `CCOC(=O)c1ncn2c1CN(C)C(=O)c1cc(F)ccc1-2` [FLUMAZENIL], the Inhibition is 13.44%. With `C[C@]12CC[C@H](O)CC1=CC[C@@H]1[C@@H]2CC[C@]2(C)C(=O)CC[C@@H]12` [PRASTERONE], the Inhibition is recorded as 27.01%.

The molecule `Cc1cc(NS(=O)(=O)c2ccc(N)cc2)no1` [SULFAMETHOXAZOLE] yielded an Inhibition of 6.61%. On to `C[C@H](CCC(=O)O)[C@H]1CC[C@H]2[C@@H]3C(=O)C[C@@H]4CC(=O)CC[C@]4(C)[C@H]3CC(=O)[C@]12C` [DEHYDROCHOLIC ACID], for which the Inhibition came out at 5.61%. Take `C#CCN(C)[C@H](C)Cc1ccccc1.Cl` [SELEGILINE HYDROCHLORIDE]: the Inhibition is reported as 9.56%. Consider `CC(C)CC(N(C)C)C1(c2ccc(Cl)cc2)CCC1` (stereo unspecified) [SIBUTRAMINE], for which the Inhibition was determined as 8.16%. In turn, `CN(C)C(=O)C(CCN1CCC(O)(c2ccc(Cl)cc2)CC1)(c1ccccc1)c1ccccc1.Cl` [LOPERAMIDE HYDROCHLORIDE] displayed an Inhibition of 29.59%.

Take `C[C@]12CC[C@H]3[C@@H](CCC4=CC(=O)CC[C@@H]43)[C@@H]1CC[C@@H]2O` [NANDROLONE]: the Inhibition turned out to be 9.8%. In the case of `CC(C)(C)NCC(O)c1cc(O)cc(O)c1.O=S(=O)(O)O` (stereo unspecified) it was 7.9%. As for `Cl.O=C1CC2(CCCC2)CC(=O)N1CCCCN1CCN(c2ncccn2)CC1` [BUSPIRONE HYDROCHLORIDE], the Inhibition was 28.1%.

In turn, `CN1[C@@H](CC(=O)c2ccccc2)CCC[C@H]1C[C@H](O)c1ccccc1.Cl` [LOBELINE HYDROCHLORIDE] came in with an Inhibition of 13.32%. `Br.CN1[C@@H]2CC(OC(=O)[C@H](CO)c3ccccc3)C[C@H]1[C@@H]1O[C@@H]12.O.O.O` (stereo partly specified) had an Inhibition of 28.47%.

In turn, `CS(=O)(=O)O.O=C(O[C@@H]1C[C@@H]2C[C@H]3C[C@H](C1)N2CC3=O)c1c[nH]c2ccccc12` came in with an Inhibition of 9.89%. `CN/C(=N\CCSCc1nc[nH]c1C)NC#N` [CIMETIDINE] returned an Inhibition of 19.7%. Molecule `C[C@]12CC[C@H]3[C@@H](CCC4=CC(=O)CC[C@@]43C)[C@@H]1CC[C@@H]2O` [TESTOSTERONE] returned an Inhibition of 8.83%. Turning to `NC(=O)C[S+]([O-])C(c1ccccc1)c1ccccc1` (stereo unspecified) [MODAFINIL], the Inhibition is recorded as 6.81%. Take `O=C1CN=C(c2ccccc2)c2cc([N+](=O)[O-])ccc2N1` [NITRAZEPAM]: the Inhibition is 19.66%.

In turn, `Cl.c1ccc2c(CC3=NCCN3)cccc2c1` [NAPHAZOLINE HYDROCHLORIDE] came in with an Inhibition of 22.4%. On to `NS(=O)(=O)c1cc(C2(O)NC(=O)c3ccccc32)ccc1Cl` (stereo unspecified) [CHLORTHALIDONE], for which the Inhibition is 6.16%.

The molecule `Cc1ncc2n1-c1ccc(Cl)cc1C(c1ccccc1F)=NC2.Cl` [MIDAZOLAM HYDROCHLORIDE] had an Inhibition of 6.77%. `Cn1c(=O)c2nc[nH]c2n(C)c1=O.O` [THEOPHYLLINE] showed an Inhibition of 9.61%. Molecule `CN(C)CCc1c[nH]c2ccc(C[C@H]3COC(=O)N3)cc12` [ZOLMITRIPTAN] had an Inhibition of 13.79%. `CN1C(=O)CN=C(c2ccccc2)c2cc([N+](=O)[O-])ccc21` [NIMETAZEPAM] registered an Inhibition of 27.05%. `COc1cc(CNC(=O)CCCC/C=C\C(C)C)ccc1O` [ZUCAPSAICIN] registered an Inhibition of 26.82%. The molecule `Cl.NCC(O)c1ccc(O)c(O)c1` (stereo unspecified) showed an Inhibition of 28.77%. The same measure for `C[N+]1(C)CCCC(OC(=O)C(O)(c2ccccc2)c2ccccc2)C1.[Br-]` (stereo unspecified) [MEPENZOLATE BROMIDE]: 20.1%; for `C[N+]1(C)CCN(c2ccccc2)CC1.[I-]` [DIMETHYLPHENYLPIPERAZINIUM IODIDE]: 27.94%.

As for `CN(C)CCC=C1c2ccccc2CCc2ccccc21.Cl` [AMITRIPTYLINE HYDROCHLORIDE], the Inhibition came to 29.85%. The same measure for `C=C1C[C@@H]2[C@H](CC[C@]3(C)C(=O)CC[C@@H]23)[C@@]2(C)C=CC(=O)C=C12` [EXEMESTANE]: 21.54%; for `CN1[C@@H]2CC[C@H]1CC(OC(=O)C(CO)c1ccccc1)C2` (stereo partly specified): 6.07%. The same measure for `O=C(O[C@@H]1Cc2c(O)cc(O)cc2O[C@@H]1c1cc(O)c(O)c(O)c1)c1cc(O)c(O)c(O)c1` [EPIGALOCATECHIN GALLATE]: 29.27%; for `CCN(C(C)=O)c1cccc(-c2ccnc3c(C#N)cnn23)c1` [ZALEPLON]: 3.56%. The molecule `COC(=O)C1=C(C)NC(C)=C(C(=O)OC)C1c1ccccc1[N+](=O)[O-]` [NIFEDIPINE] showed an Inhibition of 26.35%.

As a reminder, the Inhibition is the share of the control response that was lost under treatment. Low readings indicate little suppression, high ones strong suppression.
